These results are taken from PubChem BioAssay AID330 (DTP/NCI, 2004).

The list does not hold the whole screen: its compounds were picked by chemical class. Not every dose and run of a compound is shown. T/C: endpoint of the treated group in % of that of the vehicle group. Some doses have a count of surviving animals in place of a T/C: the source holds a T/C of zero for them, seemingly a mark for toxic or unscored doses. Some survivor counts are full or nearly so, which does not show that the dose was tolerated: the source hardly ever lists a survival T/C far under the control, and the zero likely stands for such cases as well. Survivors were counted at the toxicity check, usually on the fifth day, unless a day is given; later deaths do not show. Schedule codes are those of the source, read here as Q, the interval in days (D) or hours (H), X, the number of doses. Some complexes appear as separate parts, the way the source draws them; their charges need not add up. For survival time, this PubChem deposit counts one and a half times the control or more as active, and values a quarter to a half above the control carry no call in these data; other NCI protocols may use other cut-offs. Some doses were run more than once; their values stand side by side, smallest first. Some entries show no survivor count and are marked so; the dose need not have been tolerated. Some T/C values carry the count of animals alive at the toxicity check (mostly the fifth day); without a count or a note in brackets, all were alive then.

In the test the test system is P388 leukemia ip, CD2F1 mice, survival T/C. Kind of test: NCI In Vivo Anticancer Drug Screen. Data for tumor model P388 Leukemia (intraperitoneal) in CD2F1 (CDF1) mice. The following applies: T/C endpoint: median survival time, higher T/C = longer survival.
The mark [1] stands for this setting: dose: 100.0 mg/kg/injection, schedule: Q04DX003 (ip), vehicle: saline.
[2] abbreviates: dose: 400.0 mg/kg/injection, schedule: Q04DX003 (ip), vehicle: saline.
Setting [3] is: dose: 25.0 mg/kg/injection, schedule: Q01DX005 (ip), vehicle: saline with Tween-80.
The mark [4] stands for this setting: dose: 50.0 mg/kg/injection, schedule: Q01DX005 (ip), vehicle: saline with Tween-80.
Where [5] appears, read: dose: 100.0 mg/kg/injection, schedule: Q01DX005 (ip), vehicle: saline with Tween-80.
Setting [6] is: dose: 200.0 mg/kg/injection, schedule: Q04DX003 (ip), vehicle: saline.
[7] abbreviates: dose: 12.5 mg/kg/injection, schedule: Q01DX009 (ip), vehicle: Klucel (hydroxypropylcellulose) (HPC).
Where [8] appears, read: dose: 50.0 mg/kg/injection, schedule: Q01DX009 (ip), vehicle: Klucel (hydroxypropylcellulose) (HPC).
The mark [9] stands for this setting: dose: 100.0 mg/kg/injection, schedule: Q01DX009 (ip), vehicle: Klucel (hydroxypropylcellulose) (HPC).

On to `CC(C)OP(C)(=O)O.[U]`, for which the T/C by setting is: (dose: 6.25 mg/kg/injection, schedule: Q01DX009 (ip), vehicle: saline with Tween-80) 108 % of control [survivor count not shown]; (dose: 12.5 mg/kg/injection, schedule: Q01DX009 (ip), vehicle: saline with Tween-80) 100 % of control [survivor count not shown].
For `ClCCNCCCCCNCCCl`, the T/C is, setting by setting: under setting [1], 141 % of control; (dose: 132.0 mg/kg/injection, schedule: Q04DX003 (ip), vehicle: saline) 163 % of control; (dose: 200.0 mg/kg/injection, schedule: Q04DX003 (ip), vehicle: saline, evaluated on day 20) 166 % of control; (dose: 200.0 mg/kg/injection, schedule: Q04DX003 (ip), vehicle: saline, evaluated on day 30) 195 % of control; (dose: 300.0 mg/kg/injection, schedule: Q04DX003 (ip), vehicle: saline) 218 % of control; under setting [2], 133 % of control.
In the case of `CCO/C=C/P(=O)(NC(=O)NC1OC(COC(=O)c2ccccc2)C(OC(=O)c2ccccc2)C1OC(=O)c1ccccc1)NC(=O)OCc1ccccc1` (stereo not drawn), the T/C is, setting by setting: under setting [3], 100 % of control; under setting [4], 103 % of control; under setting [5], 94 % of control.
For `COP(C)(=O)OC.COP(C)(=O)OC.COP(C)(=O)OC.COP(C)(=O)OC.COP(C)(=O)OC.COP(C)(=O)OC.[Fe+3].[O-][Cl+3]([O-])([O-])O`, the T/C by setting is: (dose: 50.0 mg/kg/injection, schedule: Q01DX009 (ip), vehicle: saline with Tween-80) 91 % of control [survivor count not shown]; (dose: 100.0 mg/kg/injection, schedule: Q01DX009 (ip), vehicle: saline with Tween-80) 113 % of control [survivor count not shown]; (dose: 200.0 mg/kg/injection, schedule: Q01DX009 (ip), vehicle: saline with Tween-80) 89 % of control [survivor count not shown].
In the case of `CC12CCC(/C(=C/N(CCCl)CCCl)C1=O)C(C)(C)O2` (stereo not drawn), the T/C was 106 % of control (dose: 100.0 mg/kg/injection, schedule: Q04DX003 (ip), vehicle: Klucel (hydroxypropylcellulose) (HPC)); 103 % of control (dose: 200.0 mg/kg/injection, schedule: Q04DX003 (ip), vehicle: Klucel (hydroxypropylcellulose) (HPC)); 113 % of control [5 of 6 alive] (dose: 400.0 mg/kg/injection, schedule: Q04DX003 (ip), vehicle: Klucel (hydroxypropylcellulose) (HPC)).
Consider `OO.[C-]#N.[C-]#N.[C-]#N.[C-]#N.[C-]#N.[C-]#N.[C-]#N.[C-]#N.[C-]#N.[C-]#N.[Co].[Co]`, for which the T/C is, setting by setting: (dose: 3.13 mg/kg/injection, schedule: Q01DX009 (ip), vehicle: saline) 104 % of control; (dose: 6.25 mg/kg/injection, schedule: Q01DX009 (ip), vehicle: saline) 95 % of control; (dose: 12.5 mg/kg/injection, schedule: Q01DX009 (ip), vehicle: saline) 86 % of control. Also, the survivor count is, setting by setting: (dose: 50.0 mg/kg/injection, schedule: Q01DX009 (ip), vehicle: suspension in saline) 0 of 6; (dose: 100.0 mg/kg/injection, schedule: Q01DX009 (ip), vehicle: suspension in saline) 0 of 6; (dose: 200.0 mg/kg/injection, schedule: Q01DX009 (ip), vehicle: suspension in saline) 0 of 6.
For the compound `C1CN1.CC(N)C(=O)O.Nc1ncnc2nc[nH]c12`, the T/C (dose: 12.5 mg/kg/injection, schedule: Q04DX003 (ip), vehicle: saline) is 112 % of control; the T/C (dose: 25.0 mg/kg/injection, schedule: Q04DX003 (ip), vehicle: saline) is 102 % of control; the T/C (dose: 50.0 mg/kg/injection, schedule: Q04DX003 (ip), vehicle: saline) was 112 % of control. The survivor count under setting [1] is 3 of 6, the survivor count under setting [6] is 0 of 6 and the survivor count under setting [2] was 0 of 6.
For `CCOC(=O)NC(C)(CCC(C)(NC(=O)OCC)P(=O)(O)Nc1ncccn1)P(=O)(O)Nc1ncccn1` (stereo not drawn), the T/C (dose: 60.0 mg/kg/injection, schedule: Q01DX005 (ip), vehicle: saline) was 101 % of control; the T/C (dose: 120.0 mg/kg/injection, schedule: Q01DX005 (ip), vehicle: saline) was 101 % of control; the T/C (dose: 240.0 mg/kg/injection, schedule: Q01DX005 (ip), vehicle: saline) was 97 % of control.
Turning to `CC1(CCl)COP(=O)(n2cnc3ccccc32)OC1` (stereo not drawn), the T/C runs as follows: (dose: 60.0 mg/kg/injection, schedule: Q01DX005 (ip), vehicle: Klucel (hydroxypropylcellulose) (HPC)) 101 % of control; (dose: 120.0 mg/kg/injection, schedule: Q01DX005 (ip), vehicle: Klucel (hydroxypropylcellulose) (HPC)) 100 % of control; (dose: 240.0 mg/kg/injection, schedule: Q01DX005 (ip), vehicle: Klucel (hydroxypropylcellulose) (HPC)) 96 % of control [4 of 6 alive].
As for `Nc1ccc([As]=O)cc1` (stereo not drawn), the T/C runs as follows: (dose: 0.39 mg/kg/injection, schedule: Q01DX005 (ip), vehicle: saline with Tween-80) 126 and 135 % of control; (dose: 0.78 mg/kg/injection, schedule: Q01DX005 (ip), vehicle: saline with Tween-80) 128 and 146 % of control; (dose: 1.56 mg/kg/injection, schedule: Q01DX005 (ip), vehicle: saline with Tween-80) 128 and 129 % of control; (dose: 3.13 mg/kg/injection, schedule: Q01DX005 (ip), vehicle: saline with Tween-80) 131 and 144 % of control. In addition, the survivor count reads like this: (dose: 6.25 mg/kg/injection, schedule: Q01DX005 (ip), vehicle: saline with Tween-80) 5 of 6; (dose: 12.5 mg/kg/injection, schedule: Q01DX005 (ip), vehicle: saline with Tween-80) 0 of 6; under setting [3], 0 of 6; under setting [4], 0 of 6; under setting [5], 0 of 6; (dose: 200.0 mg/kg/injection, schedule: Q01DX005 (ip), vehicle: saline with Tween-80) 0 of 6.
For `CCCCCCCCCCCCCCCCCC[N+](C)(C)C.F[P-](F)(F)(F)(F)F`, the T/C is, setting by setting: (dose: 3.12 mg/kg/injection, schedule: Q01DX009 (ip), vehicle: Klucel (hydroxypropylcellulose) (HPC)) 111 and 123 % of control; (dose: 6.25 mg/kg/injection, schedule: Q01DX009 (ip), vehicle: Klucel (hydroxypropylcellulose) (HPC)) 120 and 131 % of control; under setting [7], 87 % of control. Also, the survivor count was 6 of 6 under setting [7]; 0 of 6 under setting [8]; 0 of 6 under setting [9]; 0 of 6 (dose: 200.0 mg/kg/injection, schedule: Q01DX009 (ip), vehicle: Klucel (hydroxypropylcellulose) (HPC)).
For `N/C(=N\P(=O)(O)O)Nc1ccccc1`, the T/C is 89 % of control under setting [1] and 102 % of control under setting [6]. The survivor count under setting [2] was 3 of 6.
Consider `O=[N+]([O-])OCC1(CO[N+](=O)[O-])COC1`, for which the T/C is 102 % of control [survivor count not shown] (dose: 25.0 mg/kg/injection, schedule: Q01DX009 (ip), vehicle: Klucel (hydroxypropylcellulose) (HPC)); 105 % of control [survivor count not shown] under setting [8]; 99 [survivor count not shown] and 109 % of control [survivor count not shown] under setting [9].
